# Some of the results follow. The data scatter; read single values as rough.
# Test system: Candida albicans SN425
# Assay: biofilm OD600 B-score; higher = more biofilm (less inhibition)
# Settings: 10 µM; assay detail: High-throughput adherence inhibition optical density biofilm assay with C. albicans SN425 in RPMI-1640/MOPS pH 7.0, 384-well plates. …
# Protocol: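 High-throughput adherence inhibition optical density biofilm assay with C. albicans SN425 in RPMI-1640/MOPS pH 7.0, 384-well plates. Compound (10 µM) was present only during the 90 min adherence step, then washed out, and the biofilm grew 24 h without compound. Biofilm was read as OD600 after removing the media. Scores are the difference from the mean in standard deviations and the plate B-score.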
smiles,measurement,value
Cc1cc(OCC(=O)NCc2ccccn2)ccc1Cl,biofilm OD600 B-score,-0.171
COc1cc(C(=O)N2CCCCC2)cc(OC)c1OC,biofilm OD600 B-score,0.107
CCC(C)c1c(O)nc(SCC(=O)c2ccccc2)[nH]c1=O (centres undefined),biofilm OD600 B-score,1.28
CCOc1ccccc1CN(C)C1CCN(C)CC1,biofilm OD600 B-score,0.759
Cc1ccsc1CN1CCN(CCO)CC1,biofilm OD600 B-score,-0.917
Cc1ccc(Nc2cc(-n3nc(C)cc3C)ncn2)c(C)c1,biofilm OD600 B-score,2
O=C(Nc1cccnc1)c1ccccc1F,biofilm OD600 B-score,0.476
CCSc1ncnc2c(C#N)c3n(c12)CCCCC3,biofilm OD600 B-score,-1.85
CC(=O)N1CCc2ccccc2C1CN1C(=O)c2ccccc2C1=O (centres undefined),biofilm OD600 B-score,1.33
CN(CCc1ccccn1)C(=O)c1ccccc1F,biofilm OD600 B-score,-4.39
NC1=C(N2CCCCC2)C(=O)c2ccccc2C1=O,biofilm OD600 B-score,1.2
CCc1ccc(OCCNC(C)(C)C)cc1,biofilm OD600 B-score,-1.57
CC(C)C(=O)Nc1ccc(NC(=O)Cc2ccccc2)cc1,biofilm OD600 B-score,-2.15
N#CCC(=O)c1ccc(N)cc1,biofilm OD600 B-score,1.62
OC(C#CCN1CCOCC1)c1ccccc1 (centres undefined),biofilm OD600 B-score,1.34
COc1ccc(OC)c(C(C)NC(=O)C2CC2)c1 (centres undefined),biofilm OD600 B-score,0.0437
O=C(Nc1ncn[nH]1)C1c2ccccc2Oc2ccccc21,biofilm OD600 B-score,0.626
Cc1ccccc1-c1nnn(CC(=O)O)n1,biofilm OD600 B-score,0.0152
OCCOCCN1CCN(Cc2ccc(Cl)cc2)CC1,biofilm OD600 B-score,0.594
C=CCNS(=O)(=O)c1ccc(NC(C)=O)cc1,biofilm OD600 B-score,0.724
COCC(=O)Nc1ccc(S(=O)(=O)N2CCOCC2)cc1,biofilm OD600 B-score,1.65
O=C(NCc1ccco1)c1cc(F)c(F)cc1Cl,biofilm OD600 B-score,-0.0663
Cc1ccnc(NS(=O)(=O)c2ccc(NC(=O)C3CCCO3)cc2)n1 (centres undefined),biofilm OD600 B-score,0.335
CCCOc1ccc(C(=O)NCCC(=O)O)cc1,biofilm OD600 B-score,-2.81
CCN1CCN(Cc2ccc(NC(C)=O)cc2)CC1,biofilm OD600 B-score,0.302
O=S(=O)(Nc1ccc(F)cc1Br)c1ccccc1,biofilm OD600 B-score,1.11
CCC1CCC(NCc2cccc(OC)c2OC)CC1 (centres undefined),biofilm OD600 B-score,3.17
CC(=O)Nc1cc(C(N)=O)cc(C(N)=O)c1,biofilm OD600 B-score,-1.6
NC(=O)C1CCN(C(=O)c2ccc(Br)o2)CC1,biofilm OD600 B-score,0.146
COc1cc(OC)cc(C(=O)Nc2ccccc2NC(C)=O)c1,biofilm OD600 B-score,-1.25
CC(=O)c1sc(Nc2ccc(Oc3ccccc3)cc2)nc1C,biofilm OD600 B-score,3.97
CCOC(=O)N1CCN(CC2CC=CCC2)CC1 (centres undefined),biofilm OD600 B-score,-1.01
CC1CN(C(=O)CSc2ccccc2)CC(C)O1 (centres undefined),biofilm OD600 B-score,-0.72
CC(=O)Nc1ccc(S(=O)(=O)n2cccn2)cc1,biofilm OD600 B-score,-1.9
COCc1cc(=O)n2[nH]c(C)c(-c3ccc(Cl)cc3)c2n1,biofilm OD600 B-score,-0.758
CC(C)N(CCC#N)S(=O)(=O)c1ccccc1,biofilm OD600 B-score,-0.0295
CCOc1ccccc1N1CCN(Cc2cccs2)CC1,biofilm OD600 B-score,1.4
O=C(c1ccc(Cl)cc1)N1CCN(C(=O)c2ccco2)CC1,biofilm OD600 B-score,-2.73
Cc1cc(NC(=O)C2CC3CCC2C3)no1 (centres undefined),biofilm OD600 B-score,3.21
O=[N+]([O-])c1ccc(N2CCN(Cc3cccnc3)CC2)cc1,biofilm OD600 B-score,0.368
Cc1cc(OCCN2CCN(C)CC2)ccc1C(C)C,biofilm OD600 B-score,0.519
Cc1cc(C)nc(NC(=O)C2C3C=CC(C3)C2C(=O)O)c1 (centres undefined),biofilm OD600 B-score,0.206
O=S(=O)(Nc1ccc(F)cc1)c1ccccc1,biofilm OD600 B-score,-0.392
CCCN(CCO)CC1CCCCC1,biofilm OD600 B-score,2.16
Cc1cc(NC(=O)Nc2ccc(Cl)c(Cl)c2)no1,biofilm OD600 B-score,2.35
C/C(=C\c1ccccc1)CN(C)C1CCN(C)CC1,biofilm OD600 B-score,-1.32
Cc1cc(C)c(OCC(O)CN2CCOCC2)c(C)c1 (centres undefined),biofilm OD600 B-score,2.33
N#Cc1ccc(-c2cccs2)[nH]c1=O,biofilm OD600 B-score,-1.62
COc1ccccc1Cc1nc(-c2ccncc2)no1,biofilm OD600 B-score,-2.27
CCCN1C(=O)c2ccc(C(=O)O)cc2C1=O,biofilm OD600 B-score,1.41
O=C(O)C1CC=CCC1C(=O)Nc1nc2ccccc2s1 (centres undefined),biofilm OD600 B-score,-0.00783
CCN(CC)C(=O)C1CCCN(Cc2ccc3c(c2)OCO3)C1 (centres undefined),biofilm OD600 B-score,-0.0177
CCOC(=O)N1CCN(c2ccccc2F)CC1,biofilm OD600 B-score,-0.536
O=C(Nc1ccc(-c2nnc(-c3ccccc3)o2)cc1)c1ccco1,biofilm OD600 B-score,-0.301
c1ccc(CN2CCN(c3ccccn3)CC2)cc1,biofilm OD600 B-score,-1.51
CCN(CC)C(=O)c1sc2ccccc2c1Cl,biofilm OD600 B-score,2.88
CN(C)CC(=O)Nc1ccc(Cl)cc1,biofilm OD600 B-score,-0.814
O=C(CN1CCOCC1)N(c1ccccc1)c1ccccc1,biofilm OD600 B-score,0.427
COc1ccc(S(=O)(=O)NCCC2=CCCCC2)cc1OC,biofilm OD600 B-score,0.00596
COc1cc(CN2CCCCCC2)cc(OC)c1OC,biofilm OD600 B-score,0.3
CCC(C(=O)N1CCOCC1)c1ccccc1 (centres undefined),biofilm OD600 B-score,4.9
CC(=O)Nc1cccc(S(=O)(=O)N2CCCCCC2)c1,biofilm OD600 B-score,1.74
CCc1ccccc1NC(=O)C1CCN(C(=O)c2cccc(Cl)c2)CC1,biofilm OD600 B-score,0.533
CCc1ccc(NS(=O)(=O)c2cc(OC)ccc2OC)cc1,biofilm OD600 B-score,0.365

# Exported with bars between the fields: two of the compounds above
smiles | measurement | value
CC(C)N(CCC#N)S(=O)(=O)c1ccccc1 | biofilm OD600 B-score | -0.0295
COc1ccc(S(=O)(=O)NCCC2=CCCCC2)cc1OC | biofilm OD600 B-score | 0.00596

# From the supplement of paper PMC7824004
